No constants are given. Whether binding was seen depends on the method and setting. Binding seen in cells or lysates may run through a third protein. A yes stands for co-enrichment or nearness to the bait. Other partners may have been found.
B1: EEF1B2 (protein, UniProt P24534 1-225)
chain: MGFGDLKSPAGLQVLNDYLADKSYIEGYVPSQADVAVFEAVSSPPPADLCHALRWYNHIKSYEKEKASLPGVKKALGKYGPADVEDTTGSGATDSKDDDDIDLFGSDDEEESEEAKRLREERLAQYESKKAKKPALVAKSSILLDVKPWDDETDMAKLEECVRSIQADGLVWGSSKLVPVGYGIKKLQIQCVVEDDKVGTDMLEEQITAFEDYVQSMDVAAFNKI

The chains behind the UniProt entries cited, without tags or fusion partners.
UniProt Q05639: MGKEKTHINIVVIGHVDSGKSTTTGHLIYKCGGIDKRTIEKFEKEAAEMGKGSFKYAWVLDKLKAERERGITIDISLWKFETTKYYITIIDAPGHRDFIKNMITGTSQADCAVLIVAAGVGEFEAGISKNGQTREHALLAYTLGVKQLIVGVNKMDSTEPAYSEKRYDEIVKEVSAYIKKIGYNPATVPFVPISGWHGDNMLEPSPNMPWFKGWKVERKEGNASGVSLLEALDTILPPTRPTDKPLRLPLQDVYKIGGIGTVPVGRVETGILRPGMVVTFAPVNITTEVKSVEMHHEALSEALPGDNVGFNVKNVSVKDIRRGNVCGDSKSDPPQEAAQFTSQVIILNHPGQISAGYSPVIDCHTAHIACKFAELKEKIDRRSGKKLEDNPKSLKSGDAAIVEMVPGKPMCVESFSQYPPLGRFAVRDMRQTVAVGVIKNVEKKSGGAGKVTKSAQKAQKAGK
UniProt P26641: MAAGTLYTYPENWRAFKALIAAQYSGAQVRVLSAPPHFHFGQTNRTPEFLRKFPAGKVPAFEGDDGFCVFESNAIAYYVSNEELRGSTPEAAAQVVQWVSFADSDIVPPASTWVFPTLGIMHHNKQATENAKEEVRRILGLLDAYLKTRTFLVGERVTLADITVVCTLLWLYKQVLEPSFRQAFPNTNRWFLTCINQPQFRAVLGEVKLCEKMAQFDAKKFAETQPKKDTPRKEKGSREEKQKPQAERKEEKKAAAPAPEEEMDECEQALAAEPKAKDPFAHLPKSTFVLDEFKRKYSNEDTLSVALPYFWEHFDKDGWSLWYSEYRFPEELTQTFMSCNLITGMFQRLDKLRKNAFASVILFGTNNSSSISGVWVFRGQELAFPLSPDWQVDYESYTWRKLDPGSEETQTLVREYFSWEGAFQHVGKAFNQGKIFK
UniProt P08238: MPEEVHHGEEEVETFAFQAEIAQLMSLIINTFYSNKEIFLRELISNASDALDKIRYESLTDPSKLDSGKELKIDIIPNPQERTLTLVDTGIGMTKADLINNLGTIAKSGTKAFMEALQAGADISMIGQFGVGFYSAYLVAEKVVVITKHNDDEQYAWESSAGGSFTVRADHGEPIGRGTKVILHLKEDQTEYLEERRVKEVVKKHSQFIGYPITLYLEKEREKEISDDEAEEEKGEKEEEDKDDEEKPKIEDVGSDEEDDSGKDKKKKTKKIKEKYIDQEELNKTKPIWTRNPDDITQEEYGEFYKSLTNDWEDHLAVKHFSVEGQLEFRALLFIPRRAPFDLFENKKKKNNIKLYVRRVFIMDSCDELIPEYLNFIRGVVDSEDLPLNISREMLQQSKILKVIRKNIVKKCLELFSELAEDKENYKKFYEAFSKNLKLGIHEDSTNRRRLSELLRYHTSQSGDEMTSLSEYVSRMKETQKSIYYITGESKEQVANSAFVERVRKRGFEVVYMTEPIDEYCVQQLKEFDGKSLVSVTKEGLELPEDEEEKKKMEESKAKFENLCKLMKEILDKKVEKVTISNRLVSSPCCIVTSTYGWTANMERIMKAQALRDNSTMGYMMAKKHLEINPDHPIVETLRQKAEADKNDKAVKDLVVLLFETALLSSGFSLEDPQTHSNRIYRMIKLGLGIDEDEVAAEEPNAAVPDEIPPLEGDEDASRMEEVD
UniProt P12956: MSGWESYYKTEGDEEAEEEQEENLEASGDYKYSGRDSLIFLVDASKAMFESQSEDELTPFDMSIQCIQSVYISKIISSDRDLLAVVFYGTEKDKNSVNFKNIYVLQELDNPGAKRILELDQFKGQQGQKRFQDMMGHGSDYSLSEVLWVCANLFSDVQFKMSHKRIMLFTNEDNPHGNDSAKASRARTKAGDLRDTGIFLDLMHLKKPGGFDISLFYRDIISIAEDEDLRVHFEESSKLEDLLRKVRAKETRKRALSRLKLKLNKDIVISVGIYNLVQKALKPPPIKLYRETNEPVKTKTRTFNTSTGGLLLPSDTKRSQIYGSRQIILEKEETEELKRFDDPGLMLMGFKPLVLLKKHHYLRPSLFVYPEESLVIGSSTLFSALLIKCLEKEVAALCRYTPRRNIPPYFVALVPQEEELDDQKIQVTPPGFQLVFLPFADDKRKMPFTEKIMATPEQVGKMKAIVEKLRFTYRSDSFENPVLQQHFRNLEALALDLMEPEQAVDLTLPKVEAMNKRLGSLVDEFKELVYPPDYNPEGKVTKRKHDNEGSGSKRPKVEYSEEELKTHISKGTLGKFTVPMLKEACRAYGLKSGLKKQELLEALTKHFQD

molecular target: Flag-EEF1A2 (eukaryotic protein translation elongation factor 1α2) (UniProt Q05639); test: affinity purification with mass spectrometry; Flag-EEF1A2 transfected; lysate immunoprecipitated with anti-Flag agarose, SDS-PAGE, Coomassie staining, LC-MS/MS; A549 and PC9 cells by the text, 293T cells by the legend of Fig. 5a

binding, binds:
EEF1G (from UniProt P26641 1-437)
HSP90AB1 (from UniProt P08238 1-724)
XRCC6 (from UniProt P12956 1-609)
B1

— paper PMC8007567
